This data set relates to Tbx2a. Description: EMSA. The note with it: 5 mM MgCl2; protein in a lysate after overexpression. On the technique in general: A gel shift assay detects complexes by their altered migration in electrophoresis.

The exact form of at least one protein or probe is not confirmed. At least one result comes from cells or an extract, where the contact may be indirect.

On to “TTACGTACAAGGTGTGAATCCAATTTGTAGGGATTGAGGATT (double strand) [RH2 LCR]”, for which the binding result was “binds”.

The values are drawn from paper doi:10.1101/676478.
